In PubChem BioAssay AID2073 (Sanford-Burnham Center for Chemical Genomics, 2009):
About 570 (0.2%) of roughly 290,000 compounds were called active. The shares of active, inactive and inconclusive entries below differ from those in the screen. Rule as the data show it: active = inhibition mostly above about 51% (no sharp cut-off); inconclusive = no clear call, values can overlap the other calls; inactive = mostly below about 53%.

By UniProt entry, the sequences of proteins in these tests, tags left out.
UniProt Q00975, whole entry, looked up: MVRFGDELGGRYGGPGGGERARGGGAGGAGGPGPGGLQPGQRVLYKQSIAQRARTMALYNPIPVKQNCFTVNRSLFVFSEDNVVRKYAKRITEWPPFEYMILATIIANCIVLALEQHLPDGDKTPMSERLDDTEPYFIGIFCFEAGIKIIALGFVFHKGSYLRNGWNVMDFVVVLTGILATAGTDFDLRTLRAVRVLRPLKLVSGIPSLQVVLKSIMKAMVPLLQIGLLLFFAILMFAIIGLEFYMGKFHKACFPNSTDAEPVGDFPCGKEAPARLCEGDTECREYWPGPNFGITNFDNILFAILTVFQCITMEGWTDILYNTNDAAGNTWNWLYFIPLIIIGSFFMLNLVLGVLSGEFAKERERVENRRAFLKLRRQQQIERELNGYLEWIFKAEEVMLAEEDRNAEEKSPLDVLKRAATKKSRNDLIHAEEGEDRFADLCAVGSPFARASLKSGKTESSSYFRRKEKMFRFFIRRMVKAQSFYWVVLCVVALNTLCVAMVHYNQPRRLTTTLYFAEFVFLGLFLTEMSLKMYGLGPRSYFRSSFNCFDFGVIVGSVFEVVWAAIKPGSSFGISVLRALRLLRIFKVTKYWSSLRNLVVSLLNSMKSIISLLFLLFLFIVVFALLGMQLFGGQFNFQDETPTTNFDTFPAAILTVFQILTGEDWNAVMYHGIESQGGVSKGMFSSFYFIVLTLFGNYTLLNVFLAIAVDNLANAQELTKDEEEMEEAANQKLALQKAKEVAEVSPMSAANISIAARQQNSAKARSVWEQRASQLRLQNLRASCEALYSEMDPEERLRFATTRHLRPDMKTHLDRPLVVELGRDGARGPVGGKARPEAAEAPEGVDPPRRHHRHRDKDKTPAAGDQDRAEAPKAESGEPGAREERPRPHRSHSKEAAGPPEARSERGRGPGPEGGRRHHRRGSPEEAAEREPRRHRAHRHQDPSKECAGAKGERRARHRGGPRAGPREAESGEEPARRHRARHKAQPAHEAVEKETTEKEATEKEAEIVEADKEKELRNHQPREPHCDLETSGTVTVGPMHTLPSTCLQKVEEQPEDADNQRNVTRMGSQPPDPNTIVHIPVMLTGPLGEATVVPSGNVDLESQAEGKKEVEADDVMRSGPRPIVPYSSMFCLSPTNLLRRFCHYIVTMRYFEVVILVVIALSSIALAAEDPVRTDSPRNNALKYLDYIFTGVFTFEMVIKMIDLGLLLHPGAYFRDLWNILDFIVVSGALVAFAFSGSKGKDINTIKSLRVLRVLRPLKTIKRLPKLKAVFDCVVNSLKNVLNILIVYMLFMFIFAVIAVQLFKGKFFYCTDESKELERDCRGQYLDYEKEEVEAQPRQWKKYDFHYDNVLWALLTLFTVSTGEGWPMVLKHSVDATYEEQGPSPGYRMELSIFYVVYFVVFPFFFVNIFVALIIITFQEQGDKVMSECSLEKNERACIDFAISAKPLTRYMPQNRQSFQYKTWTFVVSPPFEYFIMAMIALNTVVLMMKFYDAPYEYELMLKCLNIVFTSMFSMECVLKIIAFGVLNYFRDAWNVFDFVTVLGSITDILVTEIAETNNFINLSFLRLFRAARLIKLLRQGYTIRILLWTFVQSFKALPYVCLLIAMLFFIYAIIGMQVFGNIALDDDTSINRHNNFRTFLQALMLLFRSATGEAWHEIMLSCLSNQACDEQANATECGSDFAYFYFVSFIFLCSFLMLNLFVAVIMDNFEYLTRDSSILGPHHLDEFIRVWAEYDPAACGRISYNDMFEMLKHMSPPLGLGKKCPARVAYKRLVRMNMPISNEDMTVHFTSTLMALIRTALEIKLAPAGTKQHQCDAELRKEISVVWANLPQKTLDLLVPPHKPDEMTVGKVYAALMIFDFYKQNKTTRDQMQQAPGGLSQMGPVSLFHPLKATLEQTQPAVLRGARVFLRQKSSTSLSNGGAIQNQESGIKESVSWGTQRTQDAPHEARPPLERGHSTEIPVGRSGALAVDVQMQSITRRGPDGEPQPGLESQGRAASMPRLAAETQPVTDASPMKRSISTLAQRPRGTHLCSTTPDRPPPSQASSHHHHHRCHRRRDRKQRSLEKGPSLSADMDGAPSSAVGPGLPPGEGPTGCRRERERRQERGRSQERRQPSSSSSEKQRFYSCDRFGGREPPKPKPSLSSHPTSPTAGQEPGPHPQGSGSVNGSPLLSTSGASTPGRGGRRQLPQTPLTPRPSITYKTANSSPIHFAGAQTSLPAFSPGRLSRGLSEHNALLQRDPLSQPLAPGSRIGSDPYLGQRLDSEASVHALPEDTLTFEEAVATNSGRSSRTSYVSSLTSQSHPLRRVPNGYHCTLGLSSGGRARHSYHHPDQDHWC

target: Voltage-dependent N-type calcium channel subunit alpha-1B (Homo sapiens) (UniProt Q00975); experiment: disruptors of CaV2.2 binding to Mint1 – biochemical, HTRF (AID 2073); conditions: HTRF protein-protein interaction, Mint1-CaV2.2; at 20 µM; hits give high values

inhibition, inactive:
COc1ccc(-c2nn(-c3ccccc3)cc2/C=C(\C#N)C(N)=O)cc1[N+](=O)[O-] 43.3%
COc1ccc(C(=O)/C=C/C(=O)N(CC(=O)NC2CCCCC2)Cc2ccc(F)cc2)c(O)c1 37.7%
Cc1cc(C)c(C#N)c(N2CCN(S(=O)(=O)Cc3ccccc3)CC2)n1 1%
Cc1ccc(-c2cnn(-c3cccc([N+](=O)[O-])c3)c2N)cc1 22.4%
O=S(=O)(Nc1cc(Sc2cccc3cccnc23)c(O)c2ccccc12)c1ccc(F)cc1 -17%
OCCN1CCN(c2ncnc3c2sc2nc(N4CCOCC4)c4c(c23)CCC4)CC1 3.4%
O=C1CNC(=O)/C1=C/c1ccccc1 7.3%
COc1ccc(NC(=O)CCC(=O)N(Cc2ccc(OC)c(OC)c2)c2nccs2)cc1 6%
Cc1cc(Cl)c(OCCOCCN2CCCCC2)c(Br)c1 -0.3%
COc1ccccc1-c1nnc(SCC(=O)NCc2cccs2)n1N -0.4%
CC1(C)CC(NC(=O)c2ccccc2C(=O)NC2CC(C)(C)NC(C)(C)C2)CC(C)(C)N1 32.5%
CSc1nc(-c2ccc(C)cc2)[nH]c1S(=O)(=O)c1ccccc1 -18.4%
Cc1ccc(-c2c(C(=O)Nc3ccccc3C)c(C)[nH]c(=S)c2C#N)o1 33.2%
CCc1nc(NCCN2CCOCC2)c(C#N)c2c1CCCC2 9.8%
COc1ccc(NC(=O)C2=C(C)NC(=O)NC2c2ccccc2[N+](=O)[O-])cc1 (stereo unspecified) -2.6%
C#CCOCCOCCOCCNc1nc(N2CCN(C(=O)C(Cc3ccc(O)cc3)n3cc(C(N)CC(C)C)nn3)CC2)nc(N2CCN(C(=O)C(Cc3cc4ccccc4[nH]3)n3cc(C(N)Cc4ccc(O)cc4)nn3)CC2)n1 (stereo unspecified) 14.6%
Nc1cc(Cl)ccc1C(=O)OCC(=O)N1CCOCC1 7.5%
O=C(Nc1ccc(Cc2ccc(NC(=O)N3CCOCC3)cc2)cc1)N1CCOCC1 3.3%
CCCc1[nH]c(=O)c(C#N)c2c1COC(C)(C)C2 -5.3%
C[C@H]1[C@H](C)CC[C@]2(C(=O)O)CC[C@]3(C)C(=CC[C@@H]4[C@@]5(C)CC[C@H](O)C(C)(C)[C@@H]5CC[C@]43C)[C@H]12 41.1%
Cc1cccc(COCC(Cc2ccccc2)N2CCN(C(=O)c3cccc(Cl)c3)CCC2=O)c1 (stereo unspecified) 1.7%
O=C(NCc1ccc(Cl)cc1)c1nccnc1CO 11.8%
Nc1nnnn1/N=C/c1ccccc1OCc1ccc(Cl)cc1 0.5%
COc1cccc(C2CC(=O)N3CN(c4ccccc4F)CSC3=C2C#N)c1 (stereo unspecified) 75.5%
C=CCNC(=O)/C(C#N)=C/c1cn(-c2ccccc2)nc1-c1ccc(OC)c([N+](=O)[O-])c1 25.3%
N/C(=N\C(=S)Nc1ccccc1)c1ccccc1 5.2%

inhibition, inconclusive:
COc1ccc2c(CN3CCN(S(=O)(=O)c4cccs4)CC3)cc(=O)oc2c1 55.9%
COc1cccc(C(=O)NC(=O)Nc2nc(C)cc(C(F)(F)F)n2)c1 80.9%
CCC1(C)Cc2ccccc2-c2[nH]c(=S)[nH]c(=O)c21 (stereo unspecified) 61.3%
COc1cc(/C=C2/C(=N)N3OC(C)=CC3=NC2=O)ccc1OCCOc1ccc(C)cc1 63%
O=C(CN1CCN(c2ncccn2)CC1)N1CCc2ccccc21 86.2%
COc1ccccc1Nc1nc2ccccc2[nH]1 56.3%
COC(=O)/C=C(\C)NC(=O)c1ccccc1Cl 60.2%
COc1ccccc1NC(=O)CC1C(=O)NCCN1C(=O)Nc1ccc(Cl)c(Cl)c1 (stereo unspecified) 72.2%
CCCCNC(=O)NC1C(NC(=O)NCCCC)N(C)C(=O)N1C (stereo unspecified) 91.1%
CCOC(=O)c1cccc(NC(=O)CSc2nnc(COc3ccc(Cl)cc3)o2)c1 72%
CC(C)c1cc(-c2cc(C(=O)NCc3ccccc3)on2)nc(NCC2CC2)n1 94.2%
O=C(O)CCSc1nc2ccccc2n1CCOc1ccccc1 84.3%
Cc1ccc2[nH]c(=O)c(CN(CCc3ccccc3)C(c3nnnn3Cc3ccco3)C(C)C)cc2c1 (stereo unspecified) 56.7%
CCN1CCN(c2nc(-c3cccnc3)nc3ccccc23)CC1 70.4%
Cc1ccccc1-n1ncc2c1CC(C)(C)CC2NC(=O)CCC1=NNC(=O)CC1 (stereo unspecified) 80.1%
Cc1c(NC(=O)CN2C(=O)C3C4C=CC(C4)C3C2=O)c(=O)n(-c2ccccc2)n1C (stereo unspecified) 77.5%
O=C(CC1OC(=O)c2ccccc21)c1ccco1 (stereo unspecified) 50.4%
O=C(CSc1ncnc2c1oc1ccccc12)Nc1ccccc1F 71.5%
COc1ccc2[nH]c(=O)c(C(c3nnnn3C(C)(C)C)N(Cc3ccco3)CC3CCCO3)cc2c1 (stereo unspecified) 54.3%
Cc1cn(S(=O)(=O)c2ccc(Br)c3ccccc23)cn1 50.3%
CCN(CC)c1cc(C)c2cc(NC(=O)CNC(C)=O)ccc2n1 58.1%
CC(=O)N1CCOc2ccc(S(=O)(=O)N3C(C)CCCC3C)cc21 (stereo unspecified) 94.2%
O=C(CN1CCN(c2ccccc2F)CC1)c1ccc(O)cc1O 68.8%
Cc1ccc(-c2noc(CCCC(=O)Nc3cccnc3)n2)cc1 63.4%
O=C(c1nc2n(n1)C(c1ccc(Cl)cc1)C=C(c1ccccc1)N2)N1CCOCC1 (stereo unspecified) 52.9%
Cc1noc(C)c1CCC(=O)O 53.4%
COC(=O)C(Cc1ccccc1)NC(=O)COc1ccc(C(C)(C)C)cc1 (stereo unspecified) 61.8%
COc1ccc(S(=O)(=O)N2CCC(NC(=O)C(Cc3cccc(OC)c3OC)NC(C)=O)CC2)cc1 (stereo unspecified) 65.6%
CC1=C(C(N)=O)C(c2ccc(F)cc2)n2nc(CCCO)nc2N1 (stereo unspecified) 52.9%
CC(=O)C1C(c2ccc([N+](=O)[O-])cc2)C2C(C)=NN=C2CC1(C)O (stereo unspecified) 58.1%
CCCCN(CCCC)c1nc(-c2ccncc2)nc2ccccc12 59.5%
Cc1cccc(NC(=O)C[n+]2ccccc2)c1 57.4%
O=C(NCCN1CCN(c2cccc(Cl)c2)CC1)c1ccc(CSc2nc3ccncc3[nH]2)cc1 97.9%
Cc1ccc(C(=O)N/C(=C\c2cccc([N+](=O)[O-])c2)C(=O)OCN2C(=O)c3ccccc3C2=O)cc1 51.8%
O=C(CN1C(=O)C2(OCCO2)c2ccccc21)c1ccc(Br)cc1 58.3%
COc1ccc(-c2ocnc2C(=O)Nc2ccc(N3CCOCC3)cc2N2CCOCC2)cc1OC 60.2%
CCOc1ccc(/C=N/NC(=O)c2nnn(-c3nonc3N)c2-c2cccs2)cc1 66.1%
Cc1ccc(Nc2nc(C(=O)N3CCC(C(=O)NCc4ccccc4)CC3)cs2)cc1 77%
Oc1cc2c(cc1O)C1c3ccc(O)c(O)c3OCC1(O)C2 (stereo unspecified) 79.9%
CCCN(C(=O)CSc1nnnn1C)c1c(N)n(Cc2ccccc2)c(=O)[nH]c1=O 77.3%
O=C(Cc1csc(N2CCOCC2)n1)N/N=C/c1ccc(O)c(O)c1O 59.4%
CCOC(=O)c1cc(-c2ccco2)nc2c1c(C)nn2-c1ccccc1 98.6%
O=C(CCN1C(=O)/C(=C/c2cccs2)SC1=S)NNC(=O)c1cccc(O)c1 80.9%
O=C(NCc1ccc2c(c1)OCO2)c1cccnc1Cl 85%
Nc1ccc(-c2nc3cc(N)ccc3o2)cc1 60.6%
c1ccc(-c2nnc(-c3ccccc3)c(-c3c[nH]c4ccccc34)n2)cc1 57.8%
Cc1ccc(C(=O)Nc2ccc(N3CCN(C(=O)c4cccs4)CC3)cc2)c(Cl)c1 51.8%
O=C(COc1ccc(F)cc1)NC1CC1 53.9%
CCOc1ccc(NC(=S)N(Cc2ccc(N(C)C)cc2)Cc2ccco2)cc1 58.2%
COc1cc(/C=C2\SC(=S)N(C(Cc3ccccc3)C(=O)O)C2=O)ccc1O (stereo unspecified) 52.7%
COc1ccc(-n2ccnc2CN2CCCC(CO)(Cc3cccc(OC)c3)C2)cc1 (stereo unspecified) 69.5%
C=CCn1cc(C(=O)NCc2ccc3c(c2)OCO3)c(=O)c2cc(S(=O)(=O)N(CC)CC)ccc21 67.6%
O=C(Cc1nnc(NC(=O)Nc2ccccc2)s1)Nc1ccccc1 76.4%
CCCCNC(=O)[C@@H]1CSC2c3ccccc3C(=O)N21 (stereo partly specified) 75.2%
COc1ccc(-c2noc(CCCC(=O)NCc3ccco3)n2)cc1OC 93%
Cc1ccc2nc3c(cc(C(=O)NC4CCS(=O)(=O)C4)n3Cc3ccccc3)c(=O)n2c1 (stereo unspecified) 52.9%

Taken from the listing for reference:
inhibition, inconclusive:
COc1ccccc1NC(=O)CC1C(=O)NCCN1C(=O)Nc1ccc(Cl)c(Cl)c1 (stereo unspecified) 72.2%
CCCCNC(=O)NC1C(NC(=O)NCCCC)N(C)C(=O)N1C (stereo unspecified) 91.1%
CCOC(=O)c1cccc(NC(=O)CSc2nnc(COc3ccc(Cl)cc3)o2)c1 72%
CC(C)c1cc(-c2cc(C(=O)NCc3ccccc3)on2)nc(NCC2CC2)n1 94.2%
O=C(O)CCSc1nc2ccccc2n1CCOc1ccccc1 84.3%
Cc1ccc2[nH]c(=O)c(CN(CCc3ccccc3)C(c3nnnn3Cc3ccco3)C(C)C)cc2c1 (stereo unspecified) 56.7%
CCN1CCN(c2nc(-c3cccnc3)nc3ccccc23)CC1 70.4%
Cc1ccccc1-n1ncc2c1CC(C)(C)CC2NC(=O)CCC1=NNC(=O)CC1 (stereo unspecified) 80.1%
Cc1c(NC(=O)CN2C(=O)C3C4C=CC(C4)C3C2=O)c(=O)n(-c2ccccc2)n1C (stereo unspecified) 77.5%
O=C(CC1OC(=O)c2ccccc21)c1ccco1 (stereo unspecified) 50.4%
O=C(CSc1ncnc2c1oc1ccccc12)Nc1ccccc1F 71.5%
COc1ccc2[nH]c(=O)c(C(c3nnnn3C(C)(C)C)N(Cc3ccco3)CC3CCCO3)cc2c1 (stereo unspecified) 54.3%
Cc1cn(S(=O)(=O)c2ccc(Br)c3ccccc23)cn1 50.3%
CCN(CC)c1cc(C)c2cc(NC(=O)CNC(C)=O)ccc2n1 58.1%
CC(=O)N1CCOc2ccc(S(=O)(=O)N3C(C)CCCC3C)cc21 (stereo unspecified) 94.2%
O=C(CN1CCN(c2ccccc2F)CC1)c1ccc(O)cc1O 68.8%
Cc1ccc(-c2noc(CCCC(=O)Nc3cccnc3)n2)cc1 63.4%
O=C(c1nc2n(n1)C(c1ccc(Cl)cc1)C=C(c1ccccc1)N2)N1CCOCC1 (stereo unspecified) 52.9%
Cc1noc(C)c1CCC(=O)O 53.4%
COC(=O)C(Cc1ccccc1)NC(=O)COc1ccc(C(C)(C)C)cc1 (stereo unspecified) 61.8%
COc1ccc(S(=O)(=O)N2CCC(NC(=O)C(Cc3cccc(OC)c3OC)NC(C)=O)CC2)cc1 (stereo unspecified) 65.6%
CC1=C(C(N)=O)C(c2ccc(F)cc2)n2nc(CCCO)nc2N1 (stereo unspecified) 52.9%

Following part.

inhibition, active:
Nc1c(C(=O)NCC2CCCO2)sc2nc3c(c(-c4ccco4)c12)CC/C3=C\c1ccco1 (stereo unspecified) 86.1%
N=C1S/C(=C\c2ccco2)C(=O)N1c1ccc2c(c1)OCO2 56%
COc1ccc2c(n1)Sc1nc3ccccc3nc1N2 78.9%
CCCCc1ccc(-c2csc(/C(C#N)=C\c3ccco3)n2)cc1 57.8%
